Experimental data published in patent US20260115304A1 (priority 2023, published 2026).

Test: general procedure: solution-phase peptide synthesis; HATU/DIPEA; HOBt/DIPEA for carbonate coupling to MMAE
Conditions: trifluoroacetate; for conjugation yield: conjugation step

Substance | step yield (late stage modification step) | conjugation yield | step yield (coupling step) [% yield]
(2,3S,4S,5R,6S)-6-(2-((R)-26-amino-25-(2,5-dioxo-2,5-dihydro-1H-pyrrol-1-yl)-17,21-dioxo-4,7,10,13,22-pentaoxa-16,20-diazahexacosanamido)-4-((5S,8S,11S,12R)-11-((S)-sec-butyl)-12-(2-((S)-2-((1R,2R)-3-(((1S,2R)-1-hydroxy-1-phenylpropan-2-yl)amino)-1-methoxy-2-methyl-3-oxopropyl)pyrrolidin-1-yl)-2-oxoethyl)-5,8-diisopropyl-4,10-dimethyl-3,6,9-trioxo-2,13-dioxa-4,7,10-triazatetradecyl)phenoxy)-3,4,5-trihydroxytetrahydro-2H-pyran-2-carboxylic acid | 56.2% |  | 
(2S,3R,4S,5S,6S)-2-(2-amino-4-((5S,8S,11S,12R)-11-((S)-sec-butyl)-12-(2-((S)-2-((1R,2R)-3-(((1S,2R)-1-hydroxy-1-phenylpropan-2-yl)amino)-1-methoxy-2-methyl-3-oxopropyl)pyrrolidin-1-yl)-2-oxoethyl)-5,8-diisopropyl-4,10-dimethyl-3,6,9-trioxo-2,13-dioxa-4,7,10-triazatetradecyl)phenoxy)-6-(methoxycarbonyl)tetrahydro-2H-pyran-3,4,5-triyl triacetate |  | 63.9% yield | 
(2S,3S,4S,5R,6S)-6-(2-(3-((((R)-4-amino-3-(2,5-dioxo-2,5-dihydro-1H-pyrrol-1-yl) butoxy)carbonyl)amino)propanamido)-4-((5S,8S,11S,12R)-11-((S)-sec-butyl)-12-(2-((S)-2-((1R,2R)-3-(((1S,2R)-1-hydroxy-1-phenylpropan-2-yl)amino)-1-methoxy-2-methyl-3-oxopropyl)pyrrolidin-1-yl)-2-oxoethyl)-5,8-diisopropyl-4,10-dimethyl-3,6,9-trioxo-2,13-dioxa-4,7,10-triazatetradecyl)phenoxy)-3,4,5-trihydroxytetrahydro-2H-pyran-2-carboxylic acid | 75.3% |  | 
(2S,3S,4S,5R,6S)-6-(2-((2-((((R)-4-amino-3-(2,5-dioxo-2,5-dihydro-1H-pyrrol-1-yl) butoxy)carbonyl)amino)ethyl)carbamoyl)-4-((5S,8S,11S,12R)-11-((S)-sec-butyl)-12-(2-((S)-2-((1R,2R)-3-(((1S,2R)-1-hydroxy-1-phenylpropan-2-yl)amino)-1-methoxy-2-methyl-3-oxopropyl)pyrrolidin-1-yl)-2-oxoethyl)-5,8-diisopropyl-4,10-dimethyl-3,6,9-trioxo-2,13-dioxa-4,7,10-triazatetradecyl)phenoxy)-3,4,5-trihydroxytetrahydro-2H-pyran-2-carboxylic acid | 54.2% |  | 
(2S,3S,4S,5R,6S)-6-(2-((6S,31S,32S,33R,34S,38S,39R,40R,41R)-6-(3-((((R)-4-amino-3-(2,5-dioxo-2,5-dihydro-1H-pyrrol-1-yl) butoxy)carbonyl)amino)propanamido)-31,32,33,34,38,39,40,41,42-nonahydroxy-36-methyl-5,9,25,30-tetraoxo-13, 16, 19,22-tetraoxa-4,10,26,29,36-pentaazadotetracontanamido)-4-((5S,8S,11S,12R)-11-((S)-sec-butyl)-12-(2-((S)-2-((1R,2R)-3-(((1S,2R)-1-hydroxy-1-phenylpropan-2-yl)amino)-1-methoxy-2-methyl-3-oxopropyl)pyrrolidin-1-yl)-2-oxoethyl)-5,8-diisopropyl-4,10-dimethyl-3,6,9-trioxo-2,13-dioxa-4,7,10-triazatetradecyl)phenoxy)-3,4,5-trihydroxytetrahydro-2H-pyran-2-carboxylic acid | 68.5% | 32.9% | 
(2S,3S,4S,5R,6S)-6-(2-(((S)-42-(3-((((R)-4-amino-3-(2,5-dioxo-2,5-dihydro-1H-pyrrol-1-yl) butoxy)carbonyl)amino)propanamido)-39,43-dioxo-2,5,8,11,14,17,20,23,26,29,32,35-dodecaoxa-38,44-diazahexatetracontan-46-yl)carbamoyl)-4-((5S,8S,11S,12R)-11-((S)-sec-butyl)-12-(2-((S)-2-((1R,2R)-3-(((1S,2R)-1-hydroxy-1-phenylpropan-2-yl)amino)-1-methoxy-2-methyl-3-oxopropyl)pyrrolidin-1-yl)-2-oxoethyl)-5,8-diisopropyl-4,10-dimethyl-3,6,9-trioxo-2,13-dioxa-4,7,10-triazatetradecyl)phenoxy)-3,4,5-trihydroxytetrahydro-2H-pyran-2-carboxylic acid | 48.7% |  | 
(2S,3S,4S,5R,6S)-6-(2-((R)-32-amino-31-(2,5-dioxo-2,5-dihydro-1H-pyrrol-1-yl)-23,27-dioxo-4,7,10,13,16,19,28-heptaoxa-22,26-diazadotriacontanamido)-4-((5S,8S,11S,12R)-11-((S)-sec-butyl)-12-(2-((S)-2-((1R,2R)-3-(((1S,2R)-1-hydroxy-1-phenylpropan-2-yl)amino)-1-methoxy-2-methyl-3-oxopropyl)pyrrolidin-1-yl)-2-oxoethyl)-5,8-diisopropyl-4,10-dimethyl-3,6,9-trioxo-2,13-dioxa-4,7,10-triazatetradecyl)phenoxy)-3,4,5-trihydroxytetrahydro-2H-pyran-2-carboxylic acid | 81.2% |  | 
(2S,3S,4S,5R,6S)-6-(2-((R)-38-amino-37-(2,5-dioxo-2,5-dihydro-1H-pyrrol-1-yl)-29,33-dioxo-4,7,10,13,16,19,22,25,34-nonaoxa-28,32-diazaoctatriacontanamido)-4-((5S,8S,11S,12R)-11-((S)-sec-butyl)-12-(2-((S)-2-((1R,2R)-3-(((1S,2R)-1-hydroxy-1-phenylpropan-2-yl)amino)-1-methoxy-2-methyl-3-oxopropyl)pyrrolidin-1-yl)-2-oxoethyl)-5,8-diisopropyl-4,10-dimethyl-3,6,9-trioxo-2,13-dioxa-4,7,10-triazatetradecyl)phenoxy)-3,4,5-trihydroxytetrahydro-2H-pyran-2-carboxylic acid | 70.4% yield |  | 
(2S,3S,4S,5R,6S)-6-(2-((R,E)-13-amino-12-(2,5-dioxo-2,5-dihydro-1H-pyrrol-1-yl)-8-oxo-4,9-dioxa-3,7-diazatridec-2-en-2-yl)-4-((5S,8S,11S,12R)-11-((S)-sec-butyl)-12-(2-((S)-2-((1R,2R)-3-(((1S,2R)-1-hydroxy-1-phenylpropan-2-yl)amino)-1-methoxy-2-methyl-3-oxopropyl)pyrrolidin-1-yl)-2-oxoethyl)-5,8-diisopropyl-4,10-dimethyl-3,6,9-trioxo-2,13-dioxa-4,7,10-triazatetradecyl)phenoxy)-3,4,5-trihydroxytetrahydro-2H-pyran-2-carboxylic acid | 42.2% |  | 
(2S,3S,4S,5R,6S)-6-(2-((R,E)-17-amino-16-(2,5-dioxopyrrolidin-1-yl)-8,12-dioxo-4,13-dioxa-3,7,11-triazaheptadec-2-en-2-yl)-4-((5S,8S,11S,12R)-11-((S)-sec-butyl)-12-(2-((S)-2-((1R,2R)-3-(((1S,2R)-1-hydroxy-1-phenylpropan-2-yl)amino)-1-methoxy-2-methyl-3-oxopropyl)pyrrolidin-1-yl)-2-oxoethyl)-5,8-diisopropyl-4,10-dimethyl-3,6,9-trioxo-2,13-dioxa-4,7,10-triazatetradecyl)phenoxy)-3,4,5-trihydroxytetrahydro-2H-pyran-2-carboxylic acid | 53.9% |  | 
(2S,3S,4S,5R,6S)-6-(4-((5S,8S,11S,12R)-11-((S)-sec-butyl)-12-(2-((S)-2-((1R,2R)-3-(((1S,2R)-1-hydroxy-1-phenylpropan-2-yl)amino)-1-methoxy-2-methyl-3-oxopropyl)pyrrolidin-1-yl)-2-oxoethyl)-5,8-diisopropyl-4,10-dimethyl-3,6,9-trioxo-2,13-dioxa-4,7,10-triazatetradecyl)-2-((E)-1-((2-(4-(5-(methylsulfonyl)-1,2,4-thiadiazol-3-yl)benzamido) ethoxy)imino)ethyl)phenoxy)-3,4,5-trihydroxytetrahydro-2H-pyran-2-carboxylic acid |  | 40.5% | 
(2S,3S,4S,5R,6S)-6-(4-((5S,8S,11S,12R)-11-((S)-sec-butyl)-12-(2-((S)-2-((1R,2R)-3-(((1S,2R)-1-hydroxy-1-phenylpropan-2-yl)amino)-1-methoxy-2-methyl-3-oxopropyl)pyrrolidin-1-yl)-2-oxoethyl)-5,8-diisopropyl-4,10-dimethyl-3,6,9-trioxo-2,13-dioxa-4,7,10-triazatetradecyl)-2-((S)-42-(4-(5-(methylsulfonyl)-1,2,4-thiadiazol-3-yl)benzamido)-39,43-dioxo-2,5,8,11,14,17,20,23,26,29,32,35-dodecaoxa-38,44-diazaheptatetracontan-47-amido)phenoxy)-3,4,5-trihydroxytetrahydro-2H-pyran-2-carboxylic acid |  | 38.8% yield | 
(42S,52R)-53-amino-42-((3-((5-((5S,8S,11S,12R)-11-((S)-sec-butyl)-12-(2-((S)-2-((1R,2R)-3-(((1S,2R)-1-hydroxy-1-phenylpropan-2-yl)amino)-1-methoxy-2-methyl-3-oxopropyl)pyrrolidin-1-yl)-2-oxoethyl)-5,8-diisopropyl-4,10-dimethyl-3,6,9-trioxo-2,13-dioxa-4,7,10-triazatetradecyl)-2-(((2S,3R,4S,5S,6S)-6-carboxy-3,4,5-trihydroxytetrahydro-2H-pyran-2-yl)oxy)phenyl)amino)-3-oxopropyl)carbamoyl)-52-(2,5-dioxo-2,5-dihydro-1H-pyrrol-1-yl)-4,4-dimethyl-8,36,44,48-tetraoxo-12,15,18,21,24,27,30,33,49-nonaoxa-4,9,37,43,47-pentaazatripentacontan-4-ium-1-sulfonate | 54.2% |  | 
tert-butyl(S)-40-((((9H-fluoren-9-yl)methoxy)carbonyl)amino)-1-amino-3,6,9,12,15,18,21,24,27,30,33,36-dodecamethyl-1,4,7,10,13,16,19,22,25,28,31,34,37-tridecaoxo-3,6,9,12,15,18,21,24,27,30,33,36-dodecaazahentetracontan-41-oate |  |  | 71.5
